PubChem BioAssay AID493246 – Drosophila RNAi Screening Center – 2011
Assay: 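Identify essential fly genes by loss of cell viability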 (primary screen). Cells: Drosophila Kc and S2R+ cells. Knock-down reagent: long dsRNA against Drosophila genes. Detection: 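Cell number per well after knock-down, printed as raw plate values; calls were based on per-plate z-scores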. Scale: Kc cell number and S2R+ cell number: higher = more cells remaining. Call rule: 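Counted as a hit if cell number falls by a z-score of at least 3 within its plate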.
In all, the deposit lists about 21,000 reagents; below is a random part of those with a known target gene and a result. Over the whole deposit, 429 (2%) were called active. 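Values are raw and not normalised between plates; calls rest on per-plate z-scores that were not deposited.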 Reagents against one gene are numbered here. A plus sign joins genes that one reagent is predicted to hit. Not given: the amount of reagent, the time to read-out.

target	reagent no.	Kc cell number, rep 1	Kc cell number, rep 2	S2R+ cell number, rep 1	S2R+ cell number, rep 2	activity call
CG7607	1	1.36e6	1.42e6	1.33e6	1.34e6	inactive
anchor	1	1.67e6	1.66e6	1.43e6	1.40e6	inactive
CG6659	1	1.77e6	1.78e6	1.13e6	1.24e6	inactive
CG4730	1	1.61e6	1.56e6	9.68e5	1.08e6	inactive
Uba1	1	1.33e6	1.39e6	1.02e6	1.16e6	inactive
ro	1	1.64e6	1.72e6	8.98e5	1.07e6	inactive
CG15226 (retired record)	1	5.87e5		8.37e5		inactive
CG15226 (retired record)	2	1.86e6	1.94e6	1.33e6	2.90e5	inactive
Mapmodulin	1	1.44e6	1.51e6	1.23e6	1.26e6	inactive
CG15098	1	1.71e6	1.72e6	1.12e6	1.27e6	inactive
CG4770	1	1.16e6	1.17e6	1.16e6	1.25e6	inactive
Rpt6	1	1.51e6	1.60e6	1.13e6	1.27e6	inactive
mira	1	1.46e6	1.62e6	1.12e6	1.17e6	inactive
Fbp1	1	1.55e6	1.53e6	1.14e6	1.32e6	inactive
CG5561	1	1.72e6	1.73e6	1.09e6	1.19e6	inactive
CG14762	1	1.44e6	1.42e6	9.67e5	1.04e6	inactive
CG14762	2	1.45e6	1.59e6	1.19e6	1.28e6	inactive
S-Lap4	1	1.67e6	1.65e6	1.23e6	1.41e6	inactive
CG8366	1	1.68e6	1.73e6	1.35e6	1.58e6	inactive
Unc-115b + p24-2	1	1.47e6	1.50e6	1.22e6	1.30e6	inactive
CG31191	1	1.50e6	1.52e6	1.07e6	9.91e5	inactive
CG31191	2	1.18e6	1.15e6	1.10e6	1.23e6	inactive
CG31191	3	1.53e6	1.50e6	8.66e5	9.88e5	inactive
CG31776	1	1.53e6	1.43e6	1.16e6	1.29e6	inactive
Iswi	1	1.69e6	1.71e6	1.28e6	1.52e6	inactive
CG12436 (retired record)	1	1.50e6	1.60e6	1.23e6	1.33e6	inactive
CG12436 (retired record)	2	1.39e6	1.34e6	1.24e6	1.31e6	inactive
CG8927	1	1.16e6	1.27e6	1.12e6	1.22e6	inactive
Prosbeta4R2	1	1.34e6	1.34e6	8.22e5	8.74e5	inactive
Atx-1	1	1.46e6	1.43e6	9.84e5	1.14e6	inactive
CG14893	1	1.61e6	1.59e6	1.29e6	1.49e6	inactive
MED7	1	1.62e6	1.65e6	1.17e6	1.28e6	inactive
fz	1	1.48e6	1.53e6	1.26e6	1.43e6	inactive
ppk9	1	1.68e6	1.74e6	1.27e6	3.34e5	inactive
ppk9	2	1.64e6	1.71e6	1.24e6	4.28e5	inactive
CG34160	1	1.47e6	1.54e6	9.89e5	1.10e6	inactive
Jon65Aii	1	1.48e6	1.45e6	1.12e6	1.26e6	inactive
CG13868	1	1.24e6	1.26e6	1.11e6	1.18e6	inactive
LSm1	1	1.57e6	1.60e6	1.21e6	2.80e5	inactive
Top3alpha	1	1.58e6	1.65e6	1.34e6	4.16e5	inactive
rsh	1	1.12e6	1.42e6	1.13e6	1.20e6	inactive
rsh	2	8.87e5	9.18e5	5.47e5	6.20e5	active
CG32830 (retired record)	1	1.36e6	1.38e6	6.55e5	7.65e5	active
alphaTub67C	1	1.60e6	1.89e6	9.06e5	1.06e6	inactive
Mtpbeta	1	1.35e6	1.38e6	1.10e6	9.84e5	inactive
sing	1	1.50e6	1.50e6	1.13e6	1.15e6	inactive
CG34243 (retired record)	1	1.52e6	1.65e6	1.02e6	1.20e6	inactive
CG34243 (retired record)	2	1.58e6	1.71e6	1.15e6	1.30e6	inactive
CG42397	1	1.43e6	1.46e6	1.15e6	1.26e6	inactive
Fsn	1	1.31e6	1.42e6	1.06e6	1.08e6	inactive
Tet	1	1.27e6	1.46e6	9.21e5	1.03e6	inactive
Rab4	1	1.39e6	1.46e6	9.18e5	1.00e6	inactive
whe	1	1.55e6	1.55e6	1.07e6	1.18e6	inactive
PDZ-GEF	1	1.68e6	1.57e6	1.23e6	1.29e6	inactive
drn	1	1.56e6	1.49e6	1.29e6	1.50e6	inactive
CG17325 + CG42305	1	1.56e6	1.66e6	1.33e6	3.44e5	inactive
CG17486	1	1.34e6	1.39e6	1.26e6	1.23e6	inactive
Or65b	1	1.45e6	1.43e6	1.11e6	1.26e6	inactive
CG12984	1	1.35e6	1.39e6	1.30e6	1.40e6	inactive
Drice	1	5.31e5		8.57e5		inactive
CG2233	1	5.43e5		8.85e5		inactive
SCOT	1	1.33e6	1.39e6	1.16e6	1.22e6	inactive
CG16904	1	1.58e6	1.71e6	1.47e6	1.47e6	inactive
PhKgamma	1	5.62e5		8.31e5		inactive
SCCRO3	1	1.50e6	1.48e6	1.17e6	1.22e6	inactive
ric8a	1	5.42e5		8.01e5		inactive
fzy	1	1.38e6	1.19e6	5.37e5	6.10e5	active
Set2	1	6.57e5		9.74e5		inactive
Madm	1	1.26e6	1.32e6	1.17e6	1.25e6	inactive
Dolk	1	1.62e6	1.64e6	1.15e6	1.30e6	inactive
CG17059	1	1.60e6	1.62e6	1.35e6	1.46e6	inactive
CG1674	1	1.58e6	1.55e6	1.02e6	1.13e6	inactive
Mrp4	1	1.56e6	1.60e6	1.23e6	1.26e6	inactive
CG5466	1	1.58e5	2.00e5	3.53e5	4.20e5	active
raskol	1	1.30e6	1.45e6	1.07e6	1.16e6	inactive
raskol	2	1.48e6	1.51e6	1.07e6	1.13e6	inactive
raskol	3	1.53e6	1.51e6	1.07e6	1.10e6	inactive
raskol	4	7.59e5	8.96e5	4.57e5	5.26e5	active

Active calls, among the entries above:
target	reagent no.	Kc cell number, rep 1	Kc cell number, rep 2	S2R+ cell number, rep 1	S2R+ cell number, rep 2	activity call
rsh	2	8.87e5	9.18e5	5.47e5	6.20e5	active
CG32830 (retired record)	1	1.36e6	1.38e6	6.55e5	7.65e5	active
fzy	1	1.38e6	1.19e6	5.37e5	6.10e5	active
CG5466	1	1.58e5	2.00e5	3.53e5	4.20e5	active
raskol	4	7.59e5	8.96e5	4.57e5	5.26e5	active
